Results from PubChem BioAssay (EPA / NIEHS).
Values joined by “and” are separate entries in the source; they are usually repeats but may differ in a detail not shown here. Equal values may be shown once. The shares of active, inactive and inconclusive entries below differ from those in the screen. For part of these data: A potency beside an inconclusive call is a rough fit, not a confirmed value. Active and inactive are the calls of the source. The calls were made as follows: active = hit-call score of the fitted dose curve at least 0.9, where 1 is the maximum; inconclusive = response in the unintended direction; inactive = score below 0.9.

Columns and labels:
[1] = STM_H9_OrnCyssISnorm_ratio: Stemina devTOX quickPredict H9 human embryonic stem cell (hESC)-based Assay for Ornithine (ORN):Cystine (CYSS) Ratio (AID 2283714)
Summary of the method: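 UPLC-HRMS of spent media: ORN/CYSS ratio of internal-standard-normalized percentages, DMSO (0.1%) baseline. Pluripotent H9 hESCs, 72h exposure, daily re-dosing with fresh media; last 24h media collected.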

[2] = ArunA_CellTiter_hNC: Viability Assessment in the ArunA Biomedical's Oris Neural Crest (hNC) Cell Migration Assay (AID 2283752)
Summary of the method: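 After a 72 h chemical exposure, viability of hNC cells is read with CellTiter Aqueous One and fitted as signal loss relative to DMSO. Cells were seeded at 60,000/well on Matrigel and cultured 16 h at 37 C beforehand.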

[3] = ArunA_Migration_hNP: ArunA Biomedical's Oris Neuroprogenitor (hNP) Cell Migration Assay (AID 2283754)
Summary of the method: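 Readout is calcein-AM fluorescence (ex494/em517) of cells migrating into the detection zone, relative to DMSO. hNP1 cells (H9-derived) grown on Matrigel behind stoppers 16 h, then stoppers pulled and chemical applied 72 h; cytochalasin D as control.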

[4] = read-out: sulfotransferase (SULT2A), SULT2A1 (gene 6822); assay: CLD_SULT2A_48hr: CellzDirect (CLD) Gene Expression Assay for sulfotransferase (SULT2A) at 48 hours (AID 2283710);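 also: hits raise SULT2A1 transcript above the 0.2% DMSO vehicle baseline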
Summary of the method: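 SULT2A1 transcript measured by qNPA chemiluminescence in human primary hepatocyte cultures after 48 h, with fresh dosing solutions on two consecutive days; gain-of-signal fitting against 0.2% DMSO vehicle; cytotoxicity annotated from phase-contrast morphology.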

[5] = read-out: HMG-CoA synthase (HMGCS2), HMGCS2 (gene 3158); assay: CLD_HMGCS2_48hr: CellzDirect (CLD) Gene Expression Assay for HMG-CoA synthase (HMGCS2) at 48 hours (AID 2283711)
Summary of the method: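 mRNA induction read by qNPA chemiluminescence, 48 h after dosing. Cultured primary human liver cells (two donor preparations) received fresh compound daily over two days against 0.2% DMSO vehicle; morphology-based cytotoxicity noted alongside.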

[6] = Tanguay_ZF_120hpf_ActivityScore_legacy: (Legacy) Oregon State University Tanguay Lab 120 Hour Post-fertilization zebrafish Assay Score for Activity (AID 2283742);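 also: dechorionated Tropical 5D wild-type zebrafish embryos held singly per well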
Summary of the method: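 Dechorionated 5D embryos, one per well, static exposure 6–120 hpf, 28C, sealed and dark; final DMSO 0.64% (vol/vol). Brightfield binary scoring of mortality plus 18 endpoints; gain-of-signal fit versus DMSO baseline.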

O=C1C2CC=CCC2C(=O)N1SC(Cl)(Cl)Cl (stereo not drawn)
AC50 [1]: inconclusive: 0.0175 µM

CCSC(=O)N(CC)C1CCCCC1
AC50 [1]: active: 35.2 µM

O=[N+]([O-])c1cc(C(F)(F)F)c(Cl)c([N+](=O)[O-])c1Nc1ncc(C(F)(F)F)cc1Cl
outcome [2]: inactive | AC50 [3]: inconclusive: 8.02 nM

CCCOCC(=Nc1ccc(Cl)cc1C(F)(F)F)n1ccnc1
AC50 [4]: inconclusive: 20 µM | AC50 [5]: inconclusive: 20 µM

CC(C)OC(=O)Nc1cccc(Cl)c1
AC50 [4]: inconclusive: 0.000233 µM | AC50 [5]: inconclusive: 20 µM | AC50 [1]: active: 11.7 µM

CC(C)(C)C(O)C(Oc1ccc(Cl)cc1)n1cncn1 (stereo not drawn)
AC50 [4]: active: 7.18 µM | outcome [5]: inactive

COc1nc(NC(C)C)nc(NC(C)C)n1
AC50 [5]: inconclusive: 5.23 µM

CCC(C)(C)C(=O)OC1=C(c2ccc(Cl)cc2Cl)C(=O)OC12CCCCC2
outcome [4]: inactive | AC50 [5]: inconclusive: 0.314 µM

CCc1cccc(CC)c1N(COC)C(=O)CCl
AC50 [4]: inconclusive: 20 µM | AC50 [5]: inconclusive: 20 µM

C#CCN1C(=O)COc2cc(F)c(N3C(=O)C4=C(CCCC4)C3=O)cc21
AC50 [4]: active: 3.49 µM | AC50 [5]: inconclusive: 20 µM

CCOCN(C(=O)CCl)c1c(C)cccc1CC
AC50 [4]: inconclusive: 38.1 µM | AC50 [5]: inconclusive: 20 µM | AC50 [1]: inconclusive: 1.7 µM

CC(C)N1C(=O)c2ccccc2NS1(=O)=O
outcome [4]: inactive | outcome [5]: inactive

COc1ccc(C(=CC(=O)N2CCOCC2)c2ccc(Cl)cc2)cc1OC
outcome [4]: inactive | AC50 [5]: inconclusive: 20 µM

O=C(O)COc1nc(Cl)c(Cl)cc1Cl
AC50 [4]: inconclusive: 1.89 µM | outcome [5]: inactive

CNC(=O)ON=CC(C)(C)SC
AC50 [4]: inconclusive: 0.0479 µM | AC50 [5]: inconclusive: 3.9 µM

COc1nc(C)nc(NC(=O)NS(=O)(=O)c2ccccc2Cl)n1
AC50 [4]: inconclusive: 3.57 nM and inconclusive: 220 nM | AC50 [5]: inconclusive: 3.02 nM and inconclusive: 580 nM

CN=C=S
AC50 [4]: inconclusive: 20 µM | AC50 [5]: inconclusive: 4.88 µM

CNC(=O)Oc1ccccc1OC(C)C
outcome [4]: inactive | AC50 [5]: inconclusive: 20 µM

Clc1nc(Cl)nc(Nc2ccccc2Cl)n1
AC50 [4]: inconclusive: 20 µM | AC50 [5]: inconclusive: 20 µM

CC1(C(=O)Nc2ccc(O)c(Cl)c2Cl)CCCCC1
AC50 [4]: inconclusive: 7.44 µM | AC50 [5]: inconclusive: 20 µM

OCCOc1ccccc1
AC50 [4]: inconclusive: 20 µM | AC50 [5]: inconclusive: 20 µM

Cc1[nH]c(=O)n(C(C)(C)C)c(=O)c1Cl
outcome [4]: inactive | AC50 [5]: inconclusive: 0.00643 µM | AC50 [1]: inconclusive: 12.1 µM

Cc1cc(Cl)ccc1OCC(=O)O
AC50 [4]: inconclusive: 20 µM | outcome [5]: inactive

COP(=S)(OC)SCn1nnc2ccccc2c1=O
outcome [4]: inactive | AC50 [5]: inconclusive: 0.74 µM

CSc1nnc(C(C)(C)C)c(=O)n1N
AC50 [4]: inconclusive: 0.000633 µM | AC50 [5]: inconclusive: 2.59 µM | AC50 [1]: inconclusive: 13.2 µM | AC50 [6]: inconclusive: 169 µM

CC(C)NC(=O)N1CC(=O)N(c2cc(Cl)cc(Cl)c2)C1=O
AC50 [4]: inconclusive: 0.00065 µM | AC50 [5]: inconclusive: 28 µM

Nc1c(Cl)c(Cl)nc(C(=O)O)c1Cl
AC50 [4]: inconclusive: 20 µM | AC50 [5]: inconclusive: 2.58 µM

CCCCOC(=O)[C@@H](C)Oc1ccc(Oc2ccc(C#N)cc2F)cc1
outcome [4]: inactive | outcome [5]: inactive | AC50 [1]: active: 84.8 µM

CNC(=O)Oc1cccc2ccccc12
AC50 [4]: inconclusive: 0.00039 µM | AC50 [5]: inconclusive: 20 µM

COC(=O)c1ccccc1C(=O)OC
outcome [4]: inactive | outcome [5]: inactive | outcome [1]: inactive

CNC(=S)S
AC50 [4]: inconclusive: 0.029 µM | AC50 [5]: inconclusive: 20 µM

CCC(C)(NC(=O)c1cc(Cl)c(C)c(Cl)c1)C(=O)CCl (stereo not drawn)
outcome [4]: inactive | AC50 [5]: inconclusive: 6.14 µM

CCC(=NOC/C=C/Cl)C1=C(O)CC(C2CCOCC2)CC1=O (stereo not drawn)
AC50 [4]: inconclusive: 20 µM | AC50 [1]: inconclusive: 40.2 µM

N#Cc1cc(Br)c(O)c(Br)c1
outcome [4]: inactive | AC50 [5]: inconclusive: 20 µM

CC(C)Oc1cc(-n2nc(C(C)(C)C)oc2=O)c(Cl)cc1Cl
AC50 [4]: active: 2.92 µM | AC50 [5]: inconclusive: 8.5 µM

CN1CSC(=S)N(C)C1
outcome [4]: inactive | AC50 [5]: inconclusive: 0.019 µM

CCN(CC)C(=O)C(C)Oc1cccc2ccccc12 (stereo not drawn)
AC50 [4]: active: 33 µM | AC50 [5]: inconclusive: 3.97 µM
